Data as given in patent US9371330B2, “Substituted pyrazino[1,2-a]pyrimidines useful as CBP/catenin antagonists for enhancing asymmetric division of somatic stem cells” (University of Southern California, priority 2011, dated 2016).
For at least one compound, name, drawing or mass did not settle the structure.

Assays:
elastin = assay: ex vivo human skin assay, qRT-PCR of elastin; assay type: cell-based; settings: 24 hrs; 5 uM ICG-001, 5 uM methylated ICG-001, 1 ug/ml RA
Protocol: (§1) Methods. Ex Vivo human skin assay culture conditions were based upon a paper by Varani J et al Experimental and Molecular Pathology, 2004.
(§2) Briefly, human skin (surgical waste from plastic surgery procedures) was obtained and the subcutaneous layer of fat was trimmed manually with a scalpel. The skin was then cut into small fragments about 2 mm square and placed in 6 well plates. 1 ml of keratinocyte culture medium (Gibco 10724-011) with 1% P/S (penstrep antibiotic) was added to each well. The epidermis, bathed in media was placed facing up. On the next day (overnight culture in the media above), the skin fragments were transferred to fresh wells that contained either 5 uM ICG-001, 5-uM methylated ICG-001 or 1 ug/ml of retinoic acid (RA). After 24 hrs, skin samples in culture were removed for RNA isolation and qRT-PCR analysis of genes of interest (e.g. elastin (a gene involved in skin appearance and pliability (e.g., wrinkling) and aquaporin 1, which is involved with hydration.

aquaporin 1 = assay: ex vivo human skin assay, qRT-PCR of aquaporin 1; assay type: cell-based; settings: 24 hrs; 5 uM ICG-001, 5 uM methylated ICG-001, 1 ug/ml RA
Protocol: as §1, §2

[1] = test system: bleomycin-induced pulmonary fibrosis; assay: bleomycin-induced lung injury / pulmonary fibrosis; assay type: in vivo, mouse; settings: 1 mg/kg per day, 10-d period

| Structure (SMILES) | expression of elastin (elastin) | expression of aquaporin 1 (aquaporin 1) | inflammatory cell infiltrate [1] | interstitial and alveolar fibrosis [1] |
| --- | --- | --- | --- | --- |
| CC1=C(/C=C/C(C)=C/C=C/C(C)=C/C(=O)O)C(C)(C)CCC1 [RA, retinoic acid] | increase | increase |  |  |
| C[C@@H]1C[C@H]2[C@@H]3CCC4=CC(=O)C=C[C@]4(C)[C@@]3(F)[C@@H](O)C[C@]2(C)[C@@]1(O)C(=O)CO [dexamethasone] |  |  | significantly reduced the inflammatory cell infiltrate | interstitial and alveolar fibrosis were unaffected |
